# According to the supplement of paper PMC8728848:
# This is one part of the list.
# B1: GS7807F-bth-514-18-514 (Bacteroides thetaiotaomicron) (protein)
# chain: AGSCTGNFEEYNTNQFQIHEADPSTLMKSMIETIVNIQQNDSQMMDQMVGQLGGYLTCANVWSGTNFGTFNQSDAWNAGPWNTNFEKIYGNFFQIQEATNESGHYYAFARMIRAITMLRVADCYGPMPYSQVKKGNFYVAYDTEEQVYKNIMEDFASAANVLYNYYKDTNGNAPLASNDPVFSGNYANWARLANSMRLRVAIRISTAYPEMAKENAEAAASHEAGLIEANNDNAMMDCGSQTNPYQLAAVSWGDLRVNANIVDYMNGYGDPRMSKYFNHSTFTGHTQEYVGMRSGEDGFAKSDVAGYSIPAITGTSKLLVFCAAETAFLRAEGKLKNWSVGNKSAKEYYEEGIKLSMEQYGTTMPDNYLTNTEKPTVSHNNDPRGHAYTISNTVAVAWNDNNEEENLQRIITQKWIANYPLGLEAWAEYRRTGYPELYPCIDNLSPSGVDSKRGMRRLRFPYTEVQNNHSNYQQGVSYLKNGGPDNEATDLSWGKTN
# How the values were obtained:
# Assay in all cases: glycan array binding signal (z-score within array); higher = stronger binding
# Conditions in all cases: glycan notation: IUPAC condensed, linker removed
# [1] = molecular target: GlcNAc(b1-3)Gal(b1-4)GlcNAc(b1-3)Gal(b1-4)GlcNAc(b1-2)Man(a1-3)[GlcNAc(b1-3)Gal(b1-4)GlcNAc(b1-3)Gal(b1-4)GlcNAc(b1-2)Man(a1-6)]Man(b1-4)GlcNAc(b1-4)[Fuc(a1-6)]GlcNAc
# How it was run: (§1)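 The Consortium for Functional Glycomics database supplied 3228 glycan arrays, of which those lacking an available protein sequence were dropped. The binding signal, a within-array Z-score, was averaged across arrays of the same protein sequence and across linkers. Negative scores can be read as non-binding.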
# [2] = molecular target: GlcNAc(b1-3)Gal(b1-4)GlcNAc(b1-3)Gal(b1-4)GlcNAc(b1-2)[GlcNAc(b1-3)Gal(b1-4)GlcNAc(b1-3)Gal(b1-4)GlcNAc(b1-6)]Man(a1-6)[GlcNAc(b1-3)Gal(b1-4)GlcNAc(b1-3)Gal(b1-4)GlcNAc(b1-2)Man(a1-3)]Man(b1-4)GlcNAc(b1-4)[Fuc(a1-6)]GlcNAc
# How it was run: as §1
# [3] = molecular target: GlcNAc(b1-3)Gal(b1-4)GlcNAc(b1-3)Gal(b1-4)GlcNAc(b1-3)Gal(b1-4)GlcNAc(b1-2)Man(a1-3)[GlcNAc(b1-3)Gal(b1-4)GlcNAc(b1-3)Gal(b1-4)GlcNAc(b1-3)Gal(b1-4)GlcNAc(b1-2)Man(a1-6)]Man(b1-4)GlcNAc(b1-4)GlcNAc
# How it was run: as §1
# [4] = molecular target: GlcNAc(b1-3)Gal(b1-4)GlcNAc(b1-3)Gal(b1-4)GlcNAc(b1-3)Gal(b1-4)GlcNAc(b1-2)Man(a1-3)[GlcNAc(b1-3)Gal(b1-4)GlcNAc(b1-3)Gal(b1-4)GlcNAc(b1-3)Gal(b1-4)GlcNAc(b1-2)Man(a1-6)]Man(b1-4)GlcNAc(b1-4)[Fuc(a1-6)]GlcNAc
# How it was run: as §1
# [5] = molecular target: GlcNAc(b1-3)Gal(b1-4)GlcNAc(b1-3)Gal(b1-4)GlcNAc(b1-3)Gal(b1-4)GlcNAc(b1-2)[GlcNAc(b1-3)Gal(b1-4)GlcNAc(b1-3)Gal(b1-4)GlcNAc(b1-3)Gal(b1-4)GlcNAc(b1-6)]Man(a1-6)[GlcNAc(b1-3)Gal(b1-4)GlcNAc(b1-3)Gal(b1-4)GlcNAc(b1-3)Gal(b1-4)GlcNAc(b1-2)Man(a1-3)]Man(b1-4)GlcNAc(b1-4)[Fuc(a1-6)]GlcNAc
# How it was run: as §1
# [6] = molecular target: GlcNAc(b1-3)Gal(b1-4)GlcNAc(b1-3)Gal(b1-4)GlcNAc(b1-3)Gal(b1-4)GlcNAc(b1-3)Gal(b1-4)GlcNAc(b1-2)Man(a1-3)[GlcNAc(b1-3)Gal(b1-4)GlcNAc(b1-3)Gal(b1-4)GlcNAc(b1-3)Gal(b1-4)GlcNAc(b1-3)Gal(b1-4)GlcNAc(b1-2)Man(a1-6)]Man(b1-4)GlcNAc(b1-4)GlcNAc
# How it was run: as §1
# [7] = molecular target: GlcNAc(b1-3)Gal(b1-4)GlcNAc(b1-3)Gal(b1-4)GlcNAc(b1-3)Gal(b1-4)GlcNAc(b1-3)Gal(b1-4)GlcNAc(b1-2)Man(a1-3)[GlcNAc(b1-3)Gal(b1-4)GlcNAc(b1-3)Gal(b1-4)GlcNAc(b1-3)Gal(b1-4)GlcNAc(b1-3)Gal(b1-4)GlcNAc(b1-2)Man(a1-6)]Man(b1-4)GlcNAc(b1-4)[Fuc(a1-6)]GlcNAc
# How it was run: as §1
# [8] = molecular target: GlcNAc(b1-3)Gal(b1-4)GlcNAc(b1-3)Gal(b1-4)GlcNAc(b1-3)Gal(b1-4)GlcNAc(b1-3)Gal(b1-4)GlcNAc(b1-2)[GlcNAc(b1-3)Gal(b1-4)GlcNAc(b1-3)Gal(b1-4)GlcNAc(b1-3)Gal(b1-4)GlcNAc(b1-3)Gal(b1-4)GlcNAc(b1-6)]Man(a1-6)[GlcNAc(b1-3)Gal(b1-4)GlcNAc(b1-3)Gal(b1-4)GlcNAc(b1-3)Gal(b1-4)GlcNAc(b1-3)Gal(b1-4)GlcNAc(b1-2)Man(a1-3)]Man(b1-4)GlcNAc(b1-4)[Fuc(a1-6)]GlcNAc
# How it was run: as §1
# [9] = molecular target: GlcNAc(b1-3)Gal(b1-4)GlcNAc(b1-3)Gal(b1-4)GlcNAc(b1-3)GalNAc
# How it was run: as §1
# [10] = molecular target: GlcNAc(b1-3)Gal(b1-4)GlcNAc(b1-3)GalNAc
# How it was run: as §1
# [11] = molecular target: GlcNAc(b1-3)Gal(b1-4)GlcNAc(b1-3)[GlcNAc(b1-3)Gal(b1-4)GlcNAc(b1-3)]GalNAc
# How it was run: as §1
# [12] = molecular target: GlcNAc(b1-3)Gal(b1-4)GlcNAc(b1-6)[Gal(b1-3)]GalNAc
# How it was run: as §1
# [13] = molecular target: GlcNAc(b1-3)Gal(b1-4)GlcNAc(b1-6)[GlcNAc(b1-3)Gal(b1-3)]GalNAc
# How it was run: as §1
# [14] = molecular target: GlcNAc(b1-3)Gal(b1-4)GlcNAc(b1-6)[GlcNAc(b1-3)]Gal(b1-4)GlcNAc
# How it was run: as §1
# GlcNAc(b1-3)GalNAc = molecular target: GlcNAc(b1-3)GalNAc
# How it was run: as §1
# GlcNAc(b1-3)Man = molecular target: GlcNAc(b1-3)Man
# How it was run: as §1
# [15] = molecular target: GlcNAc(b1-3)[GlcNAc(b1-4)][GlcNAc(b1-6)]GlcNAc
# How it was run: as §1
# [16] = molecular target: GlcNAc(b1-3)[GlcNAc(b1-6)]Gal(b1-4)GlcNAc
# How it was run: as §1
# [17] = molecular target: GlcNAc(b1-3)[GlcNAc(b1-6)]GalNAc
# How it was run: as §1
# [18] = molecular target: GlcNAc(b1-4)Gal(b1-4)GlcNAc
# How it was run: as §1
# GlcNAc(b1-4)GlcNAc = molecular target: GlcNAc(b1-4)GlcNAc
# How it was run: as §1
# [19] = molecular target: GlcNAc(b1-4)GlcNAc(b1-4)GlcNAc
# How it was run: as §1
# [20] = molecular target: GlcNAc(b1-4)GlcNAc(b1-4)GlcNAc(b1-4)GlcNAc(b1-4)GlcNAc
# How it was run: as §1
# [21] = molecular target: GlcNAc(b1-4)GlcNAc(b1-4)GlcNAc(b1-4)GlcNAc(b1-4)GlcNAc(b1-4)GlcNAc
# How it was run: as §1
# [22] = molecular target: GlcNAc(b1-4)[GlcNAc(b1-6)]GalNAc
# How it was run: as §1
# [23] = molecular target: GlcNAc(b1-6)Gal(b1-4)GlcNAc
# How it was run: as §1
# GlcNAc(b1-6)GalNAc = molecular target: GlcNAc(b1-6)GalNAc
# How it was run: as §1
# [24] = molecular target: GlcNAc6S(b1-3)Gal(b1-4)GlcNAc
# How it was run: as §1
# Kdn(a2-3)Gal(b1-3)GalNAc = molecular target: Kdn(a2-3)Gal(b1-3)GalNAc
# How it was run: as §1
# Kdn(a2-3)Gal(b1-3)GlcNAc = molecular target: Kdn(a2-3)Gal(b1-3)GlcNAc
# How it was run: as §1
# Kdn(a2-3)Gal(b1-4)Glc = molecular target: Kdn(a2-3)Gal(b1-4)Glc
# How it was run: as §1
# Kdn(a2-3)Gal(b1-4)GlcNAc = molecular target: Kdn(a2-3)Gal(b1-4)GlcNAc
# How it was run: as §1
# [25] = molecular target: Kdn(a2-3)Gal(b1-4)[Fuc(a1-3)]GlcNAc
# How it was run: as §1
# Kdn(a2-6)Gal(b1-4)GlcNAc = molecular target: Kdn(a2-6)Gal(b1-4)GlcNAc
# How it was run: as §1
# [26] = molecular target: Man(a1-2)Man(a1-2)Man(a1-3)Man
# How it was run: as §1
# [27] = molecular target: Man(a1-2)Man(a1-2)Man(a1-6)[Man(a1-3)]Man
# How it was run: as §1
# Man(a1-2)Man(a1-3)Man = molecular target: Man(a1-2)Man(a1-3)Man
# How it was run: as §1
# [28] = molecular target: Man(a1-2)Man(a1-3)[Man(a1-2)Man(a1-6)]Man
# How it was run: as §1
binder,measurement,setting,value
B1,glycan array binding signal (z-score),[1],-0.665
same,glycan array binding signal (z-score),[2],0.581
same,glycan array binding signal (z-score),[3],2.65
same,glycan array binding signal (z-score),[4],3.26
same,glycan array binding signal (z-score),[5],-0.514
same,glycan array binding signal (z-score),[6],-0.802
same,glycan array binding signal (z-score),[7],1.77
same,glycan array binding signal (z-score),[8],3.08
same,glycan array binding signal (z-score),[9],-0.852
same,glycan array binding signal (z-score),[10],-0.092
same,glycan array binding signal (z-score),[11],1.28
same,glycan array binding signal (z-score),[12],-0.628
same,glycan array binding signal (z-score),[13],-0.759
same,glycan array binding signal (z-score),[14],-0.91
same,glycan array binding signal (z-score),GlcNAc(b1-3)GalNAc,-0.702
same,glycan array binding signal (z-score),GlcNAc(b1-3)Man,1.14
same,glycan array binding signal (z-score),[15],-0.699
same,glycan array binding signal (z-score),[16],0.14
same,glycan array binding signal (z-score),[17],-0.77
same,glycan array binding signal (z-score),[18],-0.66
same,glycan array binding signal (z-score),GlcNAc(b1-4)GlcNAc,-0.812
same,glycan array binding signal (z-score),[19],-0.869
same,glycan array binding signal (z-score),[20],-0.732
same,glycan array binding signal (z-score),[21],-0.84
same,glycan array binding signal (z-score),[22],-0.75
same,glycan array binding signal (z-score),[23],0.45
same,glycan array binding signal (z-score),GlcNAc(b1-6)GalNAc,-0.029
same,glycan array binding signal (z-score),[24],1.06
same,glycan array binding signal (z-score),Kdn(a2-3)Gal(b1-3)GalNAc,0.428
same,glycan array binding signal (z-score),Kdn(a2-3)Gal(b1-3)GlcNAc,1.03
same,glycan array binding signal (z-score),Kdn(a2-3)Gal(b1-4)Glc,-0.854
same,glycan array binding signal (z-score),Kdn(a2-3)Gal(b1-4)GlcNAc,-0.733
same,glycan array binding signal (z-score),[25],-0.311
same,glycan array binding signal (z-score),Kdn(a2-6)Gal(b1-4)GlcNAc,0.077
same,glycan array binding signal (z-score),[26],-0.911
same,glycan array binding signal (z-score),[27],-0.819
same,glycan array binding signal (z-score),Man(a1-2)Man(a1-3)Man,-0.821
same,glycan array binding signal (z-score),[28],-0.919

# Exported bar-delimited: part of the list above
binder | measurement | setting | value
B1 | glycan array binding signal (z-score) | [12] | -0.628
same | glycan array binding signal (z-score) | [28] | -0.919
